The target of this assay is T1, YFP–RAB-A5c (A. thaliana) (UniProt P28187).
T1 sequence: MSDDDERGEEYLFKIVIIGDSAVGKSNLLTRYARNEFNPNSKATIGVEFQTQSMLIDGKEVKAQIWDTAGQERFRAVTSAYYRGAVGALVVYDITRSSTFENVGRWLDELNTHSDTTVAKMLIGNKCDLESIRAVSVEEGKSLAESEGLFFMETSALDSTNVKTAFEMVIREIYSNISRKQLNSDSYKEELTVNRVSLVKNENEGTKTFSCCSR
The experiment in a line: affinity purification with mass spectrometry; co-immunoprecipitation against YFP–RAB-A5c from total microsomes of Arabidopsis roots; in-gel trypsin digest, label-free quantification (SinQ), three biological replicates; compared with YFP–RAB-A2a, YFP–RAB-G3f and Col-0.

No constants are given. Whether binding was seen depends on the method and setting. In cells and extracts the contact can be indirect. A yes stands for co-enrichment or nearness to the bait. Other partners may have been found. Tags and fused reporters may be left off the sequences shown.

“RECEPTOR-LIKE PROTEIN 4-LIKE1 (RLP4-L1) (A. thaliana (endogenous in roots))”: the binding result is on record as “binds”.

B1: RECEPTOR-LIKE PROTEIN4 (RLP4) (receptor, UniProt F4HWL3 23-626)
chain: RPAPYALRISCGARKNVRTPPTYALWFKDIAYTGGVPANATTPTYITPPLKTLRYFPISEGPNNCYNIVRVPKGHYSVRIFFGLVDQPSFDKEPLFDISIEGTQISSLKSGWSSQDDQVFAEALIFLLGGTATICFHSTGHGDPAILSIEILQVDDKAYSFGEGWGQGVILRTATRLTCGTGKSRFDEDYRGDHWGGDRFWNRMRSFGKSADSPRSTEETIKKASVSPNFYPEGLYQSALVSTDDQPDLTYSLDVEPNRNYSVWLHFAEIDNTITAEGKRVFDVVINGDTFFEDVDIIKMSGGRYAALVLNATVTVSGRTLTVVLQPKAGGHAIINAIEVFEIITAEFKTLRDEVSALQKMKKALGLPSRFGWNGDPCVPPQHPWSGANCQLDKNTSRWFIDGLDLDNQGLKGFLPNDISKLKHLQSINLSENNIRGGIPASLGSVTSLEVLDLSYNSFNGSIPETLGELTSLRILNLNGNSLSGKVPAAVGGRLLHRASFNFTDNAGLCGIPGLPACGPHLSSGAKIGIAFGVSLAFLLIVACAMIWWKRRQNILRAQQIAARGAPYAKKRTHVSHDIQMSRHGHNNHGQARTAVENGPSLLS
For the molecule B1, the binding result was “binds”.

These data come from article PMC10954545.
